Measurements reported in PubChem BioAssay AID2685 (National Center for Advancing Translational Sciences (NCATS), 2010).
This is one part of the list. Shown are side measurements of this screen, not its main read-out; they come without a call. Most of these compounds were active or inconclusive in the main read-out, so they are no random draw. Potencies come from curve fits of mixed quality, noted in brackets.

Assay: qHTS Assay for Lipid Storage Modulators in Drosophila S3 Cells;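 as to cell number change: cells counted by Cell Tracker Red CMTPX staining in the red channel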
Conditions: BODIPY lipid droplet fluorescence, 18-24 h; for cell number change: measured here: cell count max response, cells fed with added oleic acid
In short: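 Drosophila S3 cells got compounds at several concentrations plus oleic acid (400 uM solution). Laser-scanning cytometry with 488 nm excitation read lipid droplets at 500-530 nm and cells at 575-640 nm. Percent activity was relative to 20 uM Triacsin C.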

[1] = measured here: cell number channel AC50, cells fed with added oleic acid
[2] = measured here: lipid fluorescence (Fed channel) AC50, cells fed with added oleic acid

SMILES | cell number change [%] | AC50 [1] | AC50 [2]
COC(=O)/C(=C/c1ccc2c(c1)c1ccccc1n2C)NC(=O)c1ccccc1 | 44.6 | 32.6 µM [rising, single point] | 29.1 µM [rising, single point]
Cc1cc(/C=C(\C#N)C(=O)Nc2ccc(Cl)cc2)c(C)n1-c1ccc(N2CCOCC2)c([N+](=O)[O-])c1 | 16.6 |  | 1.64 µM [rising, full curve, poor fit]
Cc1ccccc1COc1cccc(/C=N/NC(=O)c2nnn(-c3nonc3N)c2C)c1 | 24 |  | 
CC(C)OC(=O)CSc1nnc(-c2ccccn2)n1N | 24.7 |  | 
CC(=O)c1cccc(Nc2nc(N3CCOCC3)nc(N3CCOCC3)n2)c1 | 0.59 | 3.26 µM [rising, single point] | 1.84 µM [rising, partial curve]
Cc1ccccc1NC(=O)C1CC(=O)N(c2ccccc2F)C1 (stereo unspecified) |  | 0.0651 µM [rising, full curve, poor fit] | 
O=C(COC(=O)CNC(=O)c1ccc(Cl)c([N+](=O)[O-])c1)NNC(=O)c1ccccc1F | -19.7 |  | 
O=C(CSc1nnc(-c2cnccn2)n1Cc1ccco1)c1ccc(Cl)cc1 | 104 | 2.31 µM [falling, partial curve] | 6.51 µM [falling, single point]
CCCSc1ccc([C@H]2N[C@@](C)(C(=O)OC)[C@H]3C(=O)N(C)C(=O)[C@@H]23)cc1OC | 22.8 |  | 11.6 µM [rising, single point]
C[C@@]12C(=O)Nc3ccccc3C(=O)N1[C@H]1c3cc(Br)ccc3OC[C@@H]1[C@@H]2c1ccccc1 | 3.17 |  | 4.11 µM [rising, single point]
Cc1cc(Nc2cccc(Cl)c2)n2ncnc2n1 | 42.4 | 25.9 µM [rising, single point] | 5.17 µM [rising, full curve]
Cc1ccc(NC(=O)CN(C)C(=O)Cc2ccc(Cl)cc2Cl)cc1 | -0.901 |  | 
CN1CCC(NC(=S)NC2CC2)CC1 | 26.9 |  | 0.0891 µM [rising, full curve, poor fit]
COc1ccccc1-c1nc(-c2ccc(Br)o2)no1 | -31.9 | 0.184 µM [falling, full curve, poor fit] | 20.6 µM [rising, single point]
O=c1c(Cc2c(F)cccc2Cl)c(O)ccn1CCc1ccccn1 |  |  | 11.2 µM [falling, partial curve]
O=C(CSc1nncs1)Nc1ccc(Cl)cc1C(F)(F)F | -3.7 |  | 
CCOC(=O)c1c(C)[nH]c(N=Nc2ccccc2C)c1C | -88.2 | 29.1 µM [falling, single point] | 
COc1cc(-c2noc(C)c2C#Cc2ccccn2)cc(OC)c1OC | -10.7 |  | 23.1 µM [rising, single point]
C=CCSc1nnc2n(-c3ccccc3OC)c(=O)c3c4c(sc3n12)CCC4 | -25.4 |  | 0.411 µM [rising, full curve]
Cc1ccccc1-n1c(Cn2c(=O)sc3ccccc32)nnc1SCC(N)=O | -66.7 |  | 29.1 µM [falling, single point]

SMILES | cell number change [%] | AC50 [1] | AC50 [2]
O=C(NC1CCCC1)C(c1ccccn1)N(C(=O)c1csnn1)c1ccccc1F (stereo unspecified) | 7.14 |  | 0.13 µM [rising, partial curve, poor fit]
COc1ccc(NC(=O)Cn2cnc3sc(C)c(S(=O)(=O)N4CCN(C)CC4)c3c2=O)cc1OC | 4.59 | 4.11 µM [falling, single point] | 4.61 µM [falling, single point]
Cc1ccc(OCc2ccc(C(=O)NCc3cccnc3)cc2)cc1C | -1.84 |  | 29.1 µM [rising, single point]
COc1ccc(C(=O)n2cc(C(=O)c3cc(C)ccc3O)cn2)cc1 | 32.9 | 23.1 µM [rising, single point] | 
COc1cc(NC(=O)c2c(F)cccc2F)c(Cl)cc1Cl | -6.15 | 5.8 µM [rising, single point] | 
O=C(N/N=C/c1ccccn1)c1ccc(Cl)cc1 |  | 0.58 µM [rising, single point] | 
COc1ccccc1CN1CC(C(=O)NCc2nccn2C)CCC1=O (stereo unspecified) | 43.6 | 0.082 µM [rising, full curve, poor fit] | 
CC(=O)Nc1ccc(NC(=O)c2c(C)nc3ccccn23)cc1 | 0.163 |  | 3.26 µM [falling, single point]
ClCC1CSC(=NC23CC4CC(CC(C4)C2)C3)O1 (stereo unspecified) | -11.6 |  | 5.8 µM [falling, partial curve]
CCN(CCNC(=O)CN1CCN(Cc2ccc(Cl)cc2)C1=O)c1ccccc1 | -8.7 |  | 29.1 µM [rising, single point]
CS(=O)(=O)N(CC(=O)NCCC1=CCCCC1)c1cccc([N+](=O)[O-])c1 | -11.1 |  | 32.6 µM [falling, single point]
O=C(O)C1CSC(CCc2ccccc2)N1 (stereo unspecified) | 3.97 |  | 29.1 µM [rising, single point]
COc1cccc(CNC(=O)C2CCN(S(=O)(=O)c3ccc4c(c3)OCCO4)CC2)c1 | 25.8 |  | 32.6 µM [rising, single point]
CCOc1ccc(N2C(=O)CN(c3cccc4ccccc34)C2=S)cc1 | -51.5 | 32.6 µM [falling, single point] | 1.46 µM [falling, partial curve]
O=C(/C=C/c1ccc(OCCCF)cc1)Nc1ccnc(-c2cccnc2)n1 | 11.7 | 3.66 µM [rising, partial curve, poor fit] | 0.259 µM [rising, full curve]
CC1CCCCN1Cc1c(C#N)c2ccccc2n1C (stereo unspecified) | 0.853 |  | 0.731 µM [falling, single point]
Cc1cc(C(F)(F)F)n2nc(C(=O)O)c(Cl)c2n1 | -3.49 |  | 29.1 µM [falling, single point]
Nc1nonc1-n1nnc(C(=O)N/N=C/c2ccccc2Cl)c1CN1CCOCC1 | -14.9 |  | 4.61 µM [rising, single point]
Cc1c(Cl)cnc(NC(=O)CSc2n[nH]c(N)n2)c1Cl | 27.8 |  | 0.92 µM [falling, full curve, poor fit]
O=C(Cc1cccs1)Nc1nnc(-c2ccncc2)s1 | -4.23 |  | 

Some of these compounds in order of count of non-hydrogen atoms, smallest number first:
SMILES | cell number change [%] | AC50 [1] | AC50 [2]
O=C(O)C1CSC(CCc2ccccc2)N1 (stereo unspecified) | 3.97 |  | 29.1 µM [rising, single point]
Cc1cc(C(F)(F)F)n2nc(C(=O)O)c(Cl)c2n1 | -3.49 |  | 29.1 µM [falling, single point]
CC1CCCCN1Cc1c(C#N)c2ccccc2n1C (stereo unspecified) | 0.853 |  | 0.731 µM [falling, single point]
COc1cc(NC(=O)c2c(F)cccc2F)c(Cl)cc1Cl | -6.15 | 5.8 µM [rising, single point] | 
CC(=O)Nc1ccc(NC(=O)c2c(C)nc3ccccn23)cc1 | 0.163 |  | 3.26 µM [falling, single point]
COc1ccc(C(=O)n2cc(C(=O)c3cc(C)ccc3O)cn2)cc1 | 32.9 | 23.1 µM [rising, single point] | 
Cc1ccc(OCc2ccc(C(=O)NCc3cccnc3)cc2)cc1C | -1.84 |  | 29.1 µM [rising, single point]
O=C(/C=C/c1ccc(OCCCF)cc1)Nc1ccnc(-c2cccnc2)n1 | 11.7 | 3.66 µM [rising, partial curve, poor fit] | 0.259 µM [rising, full curve]
CCN(CCNC(=O)CN1CCN(Cc2ccc(Cl)cc2)C1=O)c1ccccc1 | -8.7 |  | 29.1 µM [rising, single point]
O=C(NC1CCCC1)C(c1ccccn1)N(C(=O)c1csnn1)c1ccccc1F (stereo unspecified) | 7.14 |  | 0.13 µM [rising, partial curve, poor fit]
COc1cccc(CNC(=O)C2CCN(S(=O)(=O)c3ccc4c(c3)OCCO4)CC2)c1 | 25.8 |  | 32.6 µM [rising, single point]
COc1ccc(NC(=O)Cn2cnc3sc(C)c(S(=O)(=O)N4CCN(C)CC4)c3c2=O)cc1OC | 4.59 | 4.11 µM [falling, single point] | 4.61 µM [falling, single point]

(cont.)

SMILES | cell number change [%] | AC50 [1] | AC50 [2]
Cc1c2cnn(CC(=O)O)c(=O)c2c(C)n1Cc1ccccc1 | 33.5 |  | 4.61 µM [falling, full curve, poor fit]
COc1ccc(NS(=O)(=O)c2cccc(NC(=O)c3ccccn3)c2)cc1 | -40.3 | 18.4 µM [falling, single point] | 25.9 µM [falling, single point]
COc1ccc(NC(=O)/C(C#N)=C/c2ccc(-c3ccccc3C(=O)O)o2)cc1 | 25.7 |  | 18.4 µM [rising, single point]
COc1cc(/C=C/c2cc(C(F)(F)F)[nH]c(=O)n2)cc(OC)c1OC | -29.4 |  | 23.1 µM [falling, single point]
CCc1cc2c(cc(C(=O)O)n2C)s1 | -91.5 | 23.1 µM [falling, partial curve] | 23.1 µM [falling, partial curve]
CN(C)/C=C/C(=O)c1ccc(Br)s1 | 13.8 |  | 
CN(C(=O)C(Cl)Cl)c1ccc(OC(=O)c2ccco2)cc1 | 6.34 |  | 29.1 µM [falling, single point]
CCCCCn1c(CN2CCN(c3cccc(Cl)c3)CC2)nc2c1c(=O)[nH]c(=O)n2C | -20.8 |  | 14.6 µM [rising, single point]
CC1(C)Oc2ccc3ccc(=O)oc3c2/C(=C/NCCN/C=C2\C(=O)C(C)(C)Oc3ccc4ccc(=O)oc4c32)C1=O |  | 0.0651 µM [rising, full curve, poor fit] | 
CCOC(=O)C1C(C)N=C2SCC(=O)N2C1c1cccc(Br)c1 (stereo unspecified) | 3.68 | 0.517 µM [rising, single point] | 
CC(C)COP(=O)(OCC(C)C)C(Nc1ccccc1)c1ccc(F)cc1 (stereo unspecified) | 31.5 | 29.1 µM [rising, single point] | 23.1 µM [rising, single point]
Cc1noc(/C=C/N(C)C)c1S(=O)(=O)N1CCC(C(=O)Nc2ccc(Cl)cc2)CC1 | 38.6 | 14.6 µM [rising, partial curve, poor fit] | 29.1 µM [rising, single point]
CCCNC(=O)c1cc(-c2ccc(Br)cc2)on1 |  |  | 0.00411 µM [rising, full curve, poor fit]
CCC(NS(=O)(=O)c1c(C)[nH]c(=O)[nH]c1=O)C12CC3CC(CC(C3)C1)C2 (stereo unspecified) | -16.2 |  | 29.1 µM [falling, partial curve, poor fit]
CC(=O)Oc1ccc(C(=O)Nc2cccc(C(=O)Nc3ccccc3C(=O)O)c2)cc1 | 28.4 |  | 
Cc1ccc(C(=O)NCCc2nnc3ccc(SCC(=O)NCc4ccc(F)cc4)nn23)cc1 |  | 2.31 µM [falling, single point] | 
CCc1ccccc1Nc1nc(N)nc(COC(=O)C2=COCCO2)n1 | 31.4 | 23.1 µM [rising, partial curve] | 18.4 µM [rising, partial curve]
Cc1cc(C)cc(-c2nnc(SCC(=O)NCc3cccs3)o2)c1 | 72.1 | 1.64 µM [rising, full curve] | 0.461 µM [rising, partial curve]

Part of the list above, as a markdown table.

| SMILES | cell number change [%] | AC50 [1] | AC50 [2] |
| --- | --- | --- | --- |
| COc1ccccc1-c1nc(-c2ccc(Br)o2)no1 | -31.9 | 0.184 µM [falling, full curve, poor fit] | 20.6 µM [rising, single point] |
| CC1(C)Oc2ccc3ccc(=O)oc3c2/C(=C/NCCN/C=C2\C(=O)C(C)(C)Oc3ccc4ccc(=O)oc4c32)C1=O |  | 0.0651 µM [rising, full curve, poor fit] |  |
